{"source": "PubChem BioAssay AID1224828 | NIAID, 2016", "assay": "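Knock-downs that increase or decrease LPS-induced p65 nuclear translocation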 (primary screen)", "cells": "mouse RAW264.7 G9 macrophage reporter cells (GFP-p65, Tnf promoter-mCherry)", "reagent": "siRNA pool against mouse genes, 100 nM", "timing": "2 days siRNA transfection, then 40 min LPS before fixation", "conditions": "LPS (Salmonella minnesota R595) at 10 ng/ml", "read-out": "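Microscopy ratio of nuclear to perinuclear-ring GFP-p65 signal, scaled to the plate median; gene score is the average of two replicate robust z-scores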", "direction": "p65 translocation robust z-score: higher = more nuclear NF-kappaB p65 after LPS than the plate median; nuclear/cytoplasmic p65 ratio: higher = more nuclear NF-kappaB p65", "rule for the call": "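Active if robust z is above 3.3 (negative regulators) or below -1.56, the Tlr4 control median (positive regulators); activity score 50 or more; control wells not called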", "calls": "active = hit (p65 shift raised or lowered); inactive = no clear change", "note": "The deposit covers about 17,000 reagents; this is an unselected part. In the full data, 762 (4.5%) were called active. 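Active calls include both raised and lowered p65 entry, mostly lowered; wells with fewer than 50 cells lack a z-score.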 Raw values are not corrected between plates. Unmarked entries are inactive."}
The opening 2 entries as a preview:
{"gene":"Farsb","p65 translocation robust z-score":-0.22,"nuclear/cytoplasmic p65 ratio, rep 1":1.51,"nuclear/cytoplasmic p65 ratio, rep 2":1.48,"low cell count flag":"enough cells to score"}
{"gene":"Gucy2c","p65 translocation robust z-score":-1.23,"nuclear/cytoplasmic p65 ratio, rep 1":1.49,"nuclear/cytoplasmic p65 ratio, rep 2":1.22,"low cell count flag":"enough cells to score"}

The listing, repeating the preview:
{"gene":"Farsb","p65 translocation robust z-score":-0.22,"nuclear/cytoplasmic p65 ratio, rep 1":1.51,"nuclear/cytoplasmic p65 ratio, rep 2":1.48,"low cell count flag":"enough cells to score"}
{"gene":"Gucy2c","p65 translocation robust z-score":-1.23,"nuclear/cytoplasmic p65 ratio, rep 1":1.49,"nuclear/cytoplasmic p65 ratio, rep 2":1.22,"low cell count flag":"enough cells to score"}
{"gene":"Dct","p65 translocation robust z-score":0.19,"nuclear/cytoplasmic p65 ratio, rep 1":1.36,"nuclear/cytoplasmic p65 ratio, rep 2":1.38,"low cell count flag":"enough cells to score"}
{"gene":"Kdm5a","p65 translocation robust z-score":-0.65,"nuclear/cytoplasmic p65 ratio, rep 1":1.39,"nuclear/cytoplasmic p65 ratio, rep 2":1.29,"low cell count flag":"enough cells to score"}
{"gene":"Cdh15","p65 translocation robust z-score":1.04,"nuclear/cytoplasmic p65 ratio, rep 1":1.63,"nuclear/cytoplasmic p65 ratio, rep 2":1.49,"low cell count flag":"enough cells to score"}
{"gene":"Btn1a1","p65 translocation robust z-score":-0.32,"nuclear/cytoplasmic p65 ratio, rep 1":1.61,"nuclear/cytoplasmic p65 ratio, rep 2":1.53,"low cell count flag":"enough cells to score"}
{"gene":"Lin37","nuclear/cytoplasmic p65 ratio, rep 1":1.41,"nuclear/cytoplasmic p65 ratio, rep 2":1.2,"low cell count flag":"fewer than 50 cells per well; well left out of scoring"}
{"gene":"BC049715","p65 translocation robust z-score":-0.92,"nuclear/cytoplasmic p65 ratio, rep 1":1.37,"nuclear/cytoplasmic p65 ratio, rep 2":1.33,"low cell count flag":"enough cells to score"}
{"gene":"Styx","p65 translocation robust z-score":0.17,"nuclear/cytoplasmic p65 ratio, rep 1":1.6,"nuclear/cytoplasmic p65 ratio, rep 2":1.56,"low cell count flag":"enough cells to score"}
{"gene":"Pcdhga11","p65 translocation robust z-score":0.87,"nuclear/cytoplasmic p65 ratio, rep 1":1.55,"nuclear/cytoplasmic p65 ratio, rep 2":1.35,"low cell count flag":"enough cells to score"}
{"gene":"Cdc50b","p65 translocation robust z-score":-0.1,"nuclear/cytoplasmic p65 ratio, rep 1":1.4,"nuclear/cytoplasmic p65 ratio, rep 2":1.54,"low cell count flag":"enough cells to score"}
{"gene":"Mdga1","p65 translocation robust z-score":-0.07,"nuclear/cytoplasmic p65 ratio, rep 1":1.6,"nuclear/cytoplasmic p65 ratio, rep 2":1.6,"low cell count flag":"enough cells to score"}
